{"source": "PubChem BioAssay AID485298", "about": "(National Center for Advancing Translational Sciences (NCATS), 2010)", "note": "“And” between values parts separate entries of the source, which are not always exact repeats. Equal values may be shown once. About 740 (0.23%) of roughly 320,000 compounds were called active. This list was built around the results that the source calls inconclusive (neither active nor inactive); the mix of calls is not that of the screen. Calls come from the whole dose curve; as a rule, active = well fitted activation curve with a large enough effect; inconclusive = small, poorly fitted or top-dose-only effect; inactive = no such curve, though single readings can be large or run the other way. A potency beside an inconclusive call is a rough fit, not a confirmed value. Potency is the fitted concentration of half-maximal effect.", "data": [{"assay": "qHTS Assay for Small Molecule Inhibitors of Mitochondrial Division or Activators of Mitochondrial Fusion; note: nearly all actives have a fitted effect of over 45% in size; for growth rescue (activation): % of control where 0% means no effect", "conditions": "S. cerevisiae fusion-defective mutant growth rescue, CellTiterGlo 48 h; growth rescue (activation): at 46.1 µM (top of the series) unless noted", "description": "NIH Chemical Genomics Center [NCGC] NIH Molecular Libraries Probe Production centers Network [MLPCN] MLPCN Grant: MH081279-01 Assay Submitter (PI): Jodi M. Nunnari NCGC Assay Overview: The budding yeast S. cerevisiae is a powerful system to study mitochondrial fusion. Unlike other organisms, yeast cells without functional mitochondrial DNA (mtDNA) can be propagated and studied as long as they maintain a mitochondrial compartment and are provided with a fermentable carbon source. When mitochondrial fusion is blocked in yeast, mitochondrial tubules rapidly fragment and division continues unopposed. Under conditions where fusion is compromised in mammalian cells, nearly identical changes in mitochondrial structure have been observed. Thus, these findings indicate that steady state mitochondrial structure in cells is a characteristic and specific indicator of fusion activity. Mounting evidence has pointed to a connection between mitochondrial dynamics and apoptosis in mammalian cells. These studies indicate that in mammalian cells mitochondrial dynamics are more integrated into cellular processes than in yeast cells and have evolved not only to distribute the organelle but also to aid in the regulation of cellular homeostasis. Mitochondrial fusion proteins attenuate apoptosis by inhibiting the release of cytochrome c from mitochondria, in part by controlling cristae structures. Thus, small molecules that inhibit mitochondrial […] may promote apoptosis and potentially act as novel chemotherapeutics and stimulation of apoptosis has become an attractive target of anti-cancer therapies. To identify inhibitors of mitochondrial division, we exploit the growth phenotypes of mitochondrial fusion-defective mutants. The temperature sensitive fusion alleles, such as fzo1-1 and mgm1-5, cause mitochondrial membranes to fragment in cells under non-permissive conditions and cells lose mtDNA, and are unable to grow in the presence of non-fermentable carbon source glycerol. Inhibiting mitochondrial division rescues growth. We have developed and optimized a luminescence cell viability assay in 1536 well format for the identification of inhibitors in the yeast mitochondrial fusion-defective assay.\nThe yeast glycerol stocks where kindly supplied by the laboratory of Dr. Jodi Nunnari, University of California, Davis. All yeast glycerol stock solutions were stored in single use aliquots at -80C. The CellTiterGlo luminescence reagent, containing luciferase and luciferin, were purchased from Promega, and the reagents were stored according to manufacturer's instructions. The Buffer components for the YPEG yeast growth medium were purchased from Sigma-Aldrich (St. Louis, MO). YPEG growth medium: 1% (w/v) yeast extract, 2% (w/v) Bacto-peptone, 3% Ethanol, 3% glycerol, 0.4mM Tryptophan, 0.36mM Adenine. qHTS Assay Protocol: 1.#Dispense 2.5 ul yeast growth medium per 1536 well plate. 2.#Transfer 23 nl per well of compound to plate. 3.#Dispense 2.5 ul yeast solution at appropriate seeding density per well. 4.#Incubate for 48 hours at 37C. 5.#Dispense 5 ul of CellTiterGlow solution per well. 6.#Incubate at ambient for 10 minutes. 7.#Read using bio-luminescence protocol on Viewlux.", "values": [{"smiles": "Cc1ccc(C(=O)NNC(=O)C2CCN(C(=O)OC(C)(C)C)CC2)cc1", "Potency": "inconclusive: 39.8 µM [activator, partial curve, poor fit]"}, {"smiles": "Cc1ccc(NS(=O)(=O)c2cc(NC(=O)C(C)Oc3ccccc3)ccc2C)c(C)c1", "note": "(stereo not given)", "Potency": "inconclusive: 25.1 µM [activator, single point]"}, {"smiles": "O=C(c1cc(COc2ccc(F)cc2F)on1)N1CCCC(c2ccccc2)C1", "note": "(stereo not given)", "Potency": "inconclusive: 12.6 µM [activator, partial curve]"}, {"smiles": "Nc1c(Cl)cc(C2=NCCn3c2c2ccc([N+](=O)[O-])cc2[n+]3[O-])cc1Cl", "Potency": "inconclusive: 3.55 µM [activator, full curve]"}, {"smiles": "O=C(Nc1nc2c(Cl)cccc2s1)C1CC1", "Potency": "inconclusive: 12.6 µM [activator, partial curve]"}, {"smiles": "Cc1cccc(-c2nc(CS(=O)CC(=O)NCCc3ccc(Cl)cc3)c(C)o2)c1", "note": "(stereo not given)", "Potency": "inconclusive: 35.5 µM [activator, partial curve]"}, {"smiles": "Cc1ccc(C)c(N2CCN(C(=O)c3csc4ccccc34)CC2)c1", "Potency": "inconclusive: 28.2 µM [activator, single point]"}, {"smiles": "COc1ccccc1-c1cc(C(F)(F)F)nc(S(=O)(=O)CCCC(=O)NC(C)C)n1", "growth rescue (activation)": "inactive: 4.47%"}, {"smiles": "CCCCN(C)CCNC(=O)CCNC(=O)Cn1ccc2ccccc2c1=O", "Potency": "active: 17.8 µM"}, {"smiles": "CC(C)Cn1c(/C=C/c2ccccc2)nc2ccccc21", "Potency": "inconclusive: 20 µM [activator, single point]"}, {"smiles": "Clc1ccc(Cn2nnc(-c3ccc(CN4CCOCC4)cc3)n2)cc1", "Potency": "inconclusive: 3.98 µM [activator, full curve]"}, {"smiles": "Cc1ccc(CN(C)C(=O)CN2C(=O)NC(c3ccccc3)(c3ccccc3)C2=O)c(C)c1", "Potency": "inconclusive: 35.5 µM [activator, single point]"}, {"smiles": "FC(F)(F)c1cccc(NC(=S)N2CCCCCC2)c1", "Potency": "inconclusive: 22.4 µM [activator, single point]"}, {"smiles": "COc1ccc(C(=O)NCC(=O)OCC(=O)NC(=O)c2ccc(C(C)(C)C)cc2)cc1OC", "growth rescue (activation)": "inactive: 0.389%"}, {"smiles": "CCCN1CCC(=O)N([C@H](CN=[N+]=[N-])Cc2ccccc2)CC1", "growth rescue (activation)": "inactive: -0.458%"}, {"smiles": "O=C(c1ccc(S(=O)(=O)c2cccc(Cl)c2)c([N+](=O)[O-])c1)N1CCN(Cc2ccccc2)CC1", "Potency": "inconclusive: 28.2 µM [activator, single point]"}, {"smiles": "O=C1c2cccnc2C(=O)N1CO", "growth rescue (activation)": "inactive: 1.41%"}, {"smiles": "COc1ccc(C2=CC(=O)C[C@H](c3ccc(F)cc3)C2)c(F)c1F", "Potency": "inconclusive: 22.4 µM [activator, single point]"}, {"smiles": "CCC1=Nc2cc(C(=O)O)ccc2Sc2ccc(Cl)cc21", "Potency": "inconclusive: 11.2 µM [activator, partial curve]"}, {"smiles": "O=C(COc1ccc(-c2ccccc2)cc1)Nc1cccnc1", "Potency": "inconclusive: 15.8 µM [activator, partial curve]"}, {"smiles": "NC(=S)Nc1nc2ccccc2s1", "growth rescue (activation)": "inactive: 0.258%"}, {"smiles": "Cc1ccc(-c2csc(NC(=O)c3cccc(S(=O)(=O)N4CCN(C)CC4)c3)n2)cc1", "growth rescue (activation)": "inactive: -2.96%"}, {"smiles": "O=C(Cc1ccc(Cl)c(Cl)c1)Nc1ccccc1N1CCOCC1", "Potency": "inconclusive: 20 µM [activator, single point]"}, {"smiles": "O=C1C=C(c2cc(F)ccc2F)C[C@@H](c2ccc(F)cc2)C1", "Potency": "inconclusive: 8.91 µM [activator, single point]"}, {"smiles": "CCN(CC)CC(=O)Nc1ccc(/C(C)=N/NC2=NCCN2)cc1", "growth rescue (activation)": "inactive: -4.01%"}, {"smiles": "Cc1ccccc1N(C)S(=O)(=O)c1nnc(NC(=O)c2ccccc2F)s1", "Potency": "active: 5.62 µM"}, {"smiles": "CC(C)(C)OC(=O)N1CCN(c2ccc(NC(=O)Cn3nnc(-c4ccccc4)n3)cc2)CC1", "growth rescue (activation)": "inactive: -6.02%"}, {"smiles": "COCC(=O)N1CCC(Oc2ccc(C(=O)N(C)CCCC3CCCC3)cc2)CC1", "Potency": "inconclusive: 17.8 µM [activator, partial curve]"}, {"smiles": "CCSc1ccccc1C(=O)Nc1ccc([N+](=O)[O-])cc1OC", "Potency": "inconclusive: 15.8 µM [activator, partial curve]"}, {"smiles": "COc1ccccc1CN=c1c([N+](=O)[O-])nn(-c2ccc3c(c2)OCCO3)n1O", "Potency": "inconclusive: 31.6 µM [activator, single point]"}, {"smiles": "O=C(COC(=O)c1ccccc1C(=O)c1ccccc1)Nc1ccc(SC(F)F)cc1", "Potency": "active: 15.8 µM"}, {"smiles": "O=C(Nc1nnc(C2COc3ccccc3O2)o1)c1ccc(F)cc1", "note": "(stereo not given)", "Potency": "inconclusive: 11.2 µM [activator, partial curve]"}, {"smiles": "COc1ccccc1NC(=O)C(=O)N(c1cccnc1)C(C(=O)NC(C)(C)C)c1ccccc1F", "note": "(stereo not given)", "Potency": "inconclusive: 11.2 µM [activator, partial curve]"}, {"smiles": "Cn1c2ccccc2c2c(C(=O)N3CCN(c4ccccc4)CC3)cn(C3CCCC3)c(=O)c21", "Potency": "inconclusive: 22.4 µM [activator, partial curve]"}, {"smiles": "Cc1ccc(C(=O)Cc2nnc(C)s2)cc1", "Potency": "inconclusive: 35.5 µM [activator, single point]"}, {"smiles": "C#CCOCCOCCOCCNc1nc(N2CCN(C(=O)CCCCCCCCCCNC(=O)[C@H](CCCCN)n3cc(C[C@@H](C)CC)nn3)CC2)nc(N2CCN(C(=O)CCCCCCCCCCNC(=O)[C@@H]([C@H](C)O)n3cc(C)nn3)CC2)n1", "growth rescue (activation)": "inactive: -4.78%"}, {"smiles": "O=C(NCC(c1ccco1)N1CCN(c2ccccc2)CC1)OCc1ccccc1", "note": "(stereo not given)", "Potency": "inconclusive: 22.4 µM [activator, single point]"}, {"smiles": "CCOc1ccc2nc(SC3CC(=O)N(c4ccccc4)C3=O)sc2c1", "note": "(stereo not given)", "growth rescue (activation)": "inactive: -7.81%"}, {"smiles": "CCCc1ccc(-c2csc(NC(=O)C3=COCCO3)n2)cc1", "Potency": "inconclusive: 15.8 µM [activator, single point]"}, {"smiles": "COc1ccc(N2CCN(C(CNC(=O)OCc3ccccc3)c3ccco3)CC2)cc1", "note": "(stereo not given)", "Potency": "inconclusive: 12.6 µM [activator, partial curve]"}, {"smiles": "Cc1ccc(CCc2nnc(SCC(=O)Nc3cc(Cl)ccc3Cl)n2-c2ccccc2)o1", "Potency": "inconclusive: 12.6 µM [activator, partial curve]"}, {"smiles": "CCC(C(=O)NCCc1c[nH]c2ccc(C)cc12)c1ccccc1", "note": "(stereo not given)", "Potency": "inconclusive: 15.8 µM [activator, partial curve]"}, {"smiles": "Cc1ccc(NC(=O)CN(C)S(=O)(=O)c2ccc(Br)s2)cc1F", "Potency": "inconclusive: 7.08 µM [activator, partial curve]"}, {"smiles": "COC(=O)c1ccc(C23CC4(C2)[C@H](CN(CC2CCCCC2)[C@@H]4c2ccccc2)C3c2ccc(Cl)nc2)cc1", "note": "(stereo not given in full)", "Potency": "inconclusive: 35.5 µM [activator, partial curve]"}, {"smiles": "CC(C)CN=C(NS(=O)(=O)c1ccccc1)C(Cl)(Cl)Cl", "Potency": "inconclusive: 12.6 µM [activator, partial curve]"}, {"smiles": "COc1ccccc1/C=C/C(=O)c1ccc(NC(C)=O)cc1", "Potency": "inconclusive: 8.91 µM [activator, partial curve]"}, {"smiles": "CCCN(CC(=O)Nc1ccc(C)cc1Br)CC(=O)Nc1ccc(F)c(F)c1F", "Potency": "inconclusive: 22.4 µM [activator, single point]"}, {"smiles": "COc1ccccc1NC(=S)N1CCN(C/C=C/c2ccccc2)CC1", "growth rescue (activation)": "inactive: 8.79%"}, {"smiles": "CCCOc1c(OC)cccc1C1CC(=O)Nc2cc3c(cc21)OCO3", "note": "(stereo not given)", "growth rescue (activation)": "inactive: 9.04%"}, {"smiles": "COc1cc2c(cc1OC)C(C)N(C(=O)Nc1ccc(F)cc1)CC2", "note": "(stereo not given)", "Potency": "inconclusive: 31.6 µM [activator, single point]"}, {"smiles": "O=C(CN1CCN(c2ccc(O)cc2)CC1)NC(c1ccccc1)c1ccccc1", "Potency": "inconclusive: 14.1 µM [activator, partial curve]"}, {"smiles": "Cn1c(=O)c2[nH]c(-c3ccccc3)nc2n(C)c1=O", "Potency": "inactive and inconclusive: 1.84 µM [activator, partial curve, poor fit]"}, {"smiles": "CC(C)(C)c1ccc2c(c1)OC(C(=O)N/N=C\\c1ccccn1)CO2", "note": "(stereo not given)", "Potency": "active: 15.8 µM"}, {"smiles": "COC(=O)c1c(C)[nH]c(C)c1-c1cccc([N+](=O)[O-])c1", "Potency": "inconclusive: 5.62 µM [activator, single point]"}, {"smiles": "Cc1cc(Cl)cc(Cl)c1OCCOc1cccc2cccnc12", "Potency": "inconclusive: 17.8 µM [activator, partial curve]"}, {"smiles": "COc1ccc(N2CCN(c3oc(-c4ccccc4OC)nc3C#N)CC2)cc1", "Potency": "inconclusive: 14.1 µM [activator, partial curve]"}, {"smiles": "CC(CNC(=O)CN1C(=O)COc2ccc(S(=O)(=O)N3CCCCC3)cc21)c1ccccc1", "note": "(stereo not given)", "Potency": "inconclusive: 5.62 µM [activator, single point]"}, {"smiles": "COc1cc2[nH]c(=S)nc(NCCCOC(C)C)c2cc1OC", "growth rescue (activation)": "inactive: 1.54%"}, {"smiles": "CC1(C)CC2CC(C)(CN2C(=O)c2cc(-c3ccc(O)cc3)on2)C1", "note": "(stereo not given)", "Potency": "inconclusive: 12.6 µM [activator, partial curve]"}, {"smiles": "CN(C)S(=O)(=O)c1ccc(C(=O)NCC(c2cccs2)N2CCOCC2)cc1", "note": "(stereo not given)", "Potency": "inconclusive: 0.562 µM [activator, full curve, poor fit]"}, {"smiles": "N#Cc1nc(COc2cccc(Cl)c2)oc1NCc1ccco1", "Potency": "inconclusive: 22.4 µM [activator, single point]"}, {"smiles": "CC(C)(C)NS(=O)(=O)c1ccc(C(=O)Nc2ccc3c(c2)OCO3)cc1", "Potency": "active: 35.5 µM"}, {"smiles": "O=C1CSC(c2cn(-c3ccccc3)nc2-c2ccc3c(c2)OCCO3)N1CCN1CCOCC1", "note": "(stereo not given)", "Potency": "inconclusive: 31.6 µM [activator, single point]"}, {"smiles": "Cc1ccc(NC(=O)C(NC2CCCc3ccccc32)c2ccccc2)c([N+](=O)[O-])c1", "note": "(stereo not given)", "Potency": "inconclusive: 31.6 µM [activator, single point]"}, {"smiles": "COc1ccc(CNC(=O)C/C(C)=N/NC(=O)C(c2ccccc2)c2ccccc2)cc1", "growth rescue (activation)": "inactive: -0.65%"}]}]}
